Measured values as given in patent publication US11225470B2, “Tetrazolinone compounds and its use as pest control agents” (SUMITOMO CHEMICAL COMPANY, LIMITED, priority 2016, dated 2022).
Some results were stated once for a whole list of compounds, not compound by compound.

Assays:
Format in all cases: in vivo
[1] = tested on: cucumber downy mildew fungi (Pseudoperonospora cubensis); experiment: cucumber downy mildew test; conditions: inoculation after 1 day, cucumber cv SAGAMIHANJIRO
[2] = tested on: soybean rust fungi (Phakopsora pachyrhizi); experiment: soybean rust test, spraying before inoculation; conditions: 200 ppm foliar spray, inoculation after 4 days; soybean cv Kurosengoku
[3] = tested on: barley scald fungi (Rhynchosporium secalis); experiment: barley scald test; conditions: inoculation after 2 days, barley cv NISHINOHOSHI
[4] = tested on: barley net blotch fungi (Pyrenophora teres); experiment: barley net blotch test; conditions: 200 ppm foliar spray, inoculation after 2 days; barley cv MIKAMO GOLDEN
[5] = tested on: wheat brown rust fungi (Puccinia recondita); experiment: wheat brown rust test; conditions: inoculation after 5 days, wheat cv SHIROGANE
[6] = tested on: wheat leaf blotch fungi (Septoria tritici); experiment: wheat leaf blotch test, spraying before inoculation; conditions: inoculation after 4 days
[7] = tested on: wheat leaf blotch fungi (Septoria tritici); experiment: wheat leaf blotch test, spraying after inoculation; conditions: 200 ppm foliar spray 3 days after inoculation; wheat cv APOGEE
[8] = tested on: kidney bean sclerotinia rot fungi (Sclerotinia sclerotiorum); experiment: kidney bean sclerotinia rot test; conditions: kidney bean cv NAGAUZURA SAITO, observed after four days
[9] = tested on: soybean frogeye leaf spot disease fungi (Cercospora sojina); experiment: soybean frogeye leaf spot test, spraying after inoculation; conditions: 200 ppm foliar spray 5 days after inoculation; soybean cv TACHINAGAHA
[10] = tested on: soybean frogeye leaf spot disease fungi (Cercospora sojina); experiment: soybean frogeye leaf spot test, spraying before inoculation; conditions: 200 ppm foliar spray, inoculation after 2 days; soybean cv TACHINAGAHA
[11] = tested on: soybean powdery mildew fungi (Erysiphe diffusa); experiment: soybean powdery mildew test, spraying after inoculation; conditions: 200 ppm foliar spray 2 days after inoculation; soybean cv KUROSENGOKU
[12] = tested on: soybean rust fungi (Phakopsora pachyrhizi); experiment: soybean rust test, spraying after inoculation; conditions: 200 ppm foliar spray 3 days after inoculation; soybean cv Kurosengoku; observed 8 days after spraying
[13] = 200 ppm foliar spray, wheat cv APOGEE
[14] = 500 ppm foliar spray, wheat cv Apogee

CCC(=NN=C(C)c1cc2ccccc2o1)OCc1c(C)cccc1-n1nnn(C)c1=O [1-2]
≤ 30%: lesion area compared to the lesion area in an untreated cucumber ([1]; 200 ppm foliar spray) | lesion area compared to the lesion area in an untreated soybean [2] | lesion area compared to the lesion area in an untreated barley ([3]; 200 ppm foliar spray) | lesion area compared to the lesion area in an untreated barley ([3]; 500 ppm foliar spray) | lesion area compared to the lesion area in an untreated barley [4] | lesion area compared to the lesion area in an untreated wheat ([5]; 200 ppm foliar spray) | lesion area compared to the lesion area in an untreated wheat ([5]; 500 ppm foliar spray) | lesion area compared to the lesion area in an untreated wheat [6, 13] | lesion area compared to the lesion area in an untreated wheat [6, 14] | lesion area compared to the lesion area in an untreated wheat [7] | lesion area compared to the lesion area in an untreated kidney bean ([8]; 200 ppm foliar spray) | lesion area compared to the lesion area in an untreated kidney bean ([8]; 500 ppm foliar spray) | lesion area compared to the lesion area in an untreated soybean [9]

CCC(=NN=C(C)c1cnccn1)OCc1c(C)cccc1-n1nnn(C)c1=O [1-4]
≤ 30%: lesion area compared to the lesion area in an untreated soybean [2] | lesion area compared to the lesion area in an untreated barley ([3]; 200 ppm foliar spray) | lesion area compared to the lesion area in an untreated barley ([3]; 500 ppm foliar spray) | lesion area compared to the lesion area in an untreated barley [4] | lesion area compared to the lesion area in an untreated wheat ([5]; 200 ppm foliar spray) | lesion area compared to the lesion area in an untreated wheat [6, 13] | lesion area compared to the lesion area in an untreated wheat [6, 14] | lesion area compared to the lesion area in an untreated wheat [7] | lesion area compared to the lesion area in an untreated soybean [9]

CSC(=Nc1ccc(OC(F)(F)F)cc1)SCc1c(C)cccc1-n1nnn(C)c1=O [4-8]
≤ 30%: lesion area compared to the lesion area in an untreated barley ([3]; 500 ppm foliar spray) | lesion area compared to the lesion area in an untreated barley [4] | lesion area compared to the lesion area in an untreated wheat [6, 13] | lesion area compared to the lesion area in an untreated wheat [6, 14] | lesion area compared to the lesion area in an untreated wheat [7] | lesion area compared to the lesion area in an untreated kidney bean ([8]; 500 ppm foliar spray) | lesion area compared to the lesion area in an untreated soybean [9]

CSC(=Nc1ccc(Cl)cc1)SCc1c(C)cccc1-n1nnn(C)c1=O [4-9]
≤ 30%: lesion area compared to the lesion area in an untreated barley ([3]; 500 ppm foliar spray) | lesion area compared to the lesion area in an untreated barley [4] | lesion area compared to the lesion area in an untreated wheat ([5]; 200 ppm foliar spray) | lesion area compared to the lesion area in an untreated wheat [6, 13] | lesion area compared to the lesion area in an untreated wheat [6, 14] | lesion area compared to the lesion area in an untreated wheat [7] | lesion area compared to the lesion area in an untreated soybean [9]

CCC(=NN=C(C)C(C)=NOCc1ccccc1)OCc1c(C)cccc1-n1nnn(C)c1=O [C-1]
≤ 30%: lesion area compared to the lesion area in an untreated soybean [2] | lesion area compared to the lesion area in an untreated barley ([3]; 200 ppm foliar spray) | lesion area compared to the lesion area in an untreated barley ([3]; 500 ppm foliar spray) | lesion area compared to the lesion area in an untreated barley [4] | lesion area compared to the lesion area in an untreated wheat ([5]; 200 ppm foliar spray) | lesion area compared to the lesion area in an untreated wheat ([5]; 500 ppm foliar spray) | lesion area compared to the lesion area in an untreated wheat [6, 13] | lesion area compared to the lesion area in an untreated wheat [6, 14] | lesion area compared to the lesion area in an untreated wheat [7] | lesion area compared to the lesion area in an untreated soybean [9]

CC#CCON=C(C)C(C)=NN=C(CC)OCc1c(C)cccc1-n1nnn(C)c1=O [C-6]
≤ 30%: lesion area compared to the lesion area in an untreated cucumber ([1]; 50 ppm foliar spray) | lesion area compared to the lesion area in an untreated soybean [2] | lesion area compared to the lesion area in an untreated barley ([3]; 200 ppm foliar spray) | lesion area compared to the lesion area in an untreated barley ([3]; 500 ppm foliar spray) | lesion area compared to the lesion area in an untreated barley [4] | lesion area compared to the lesion area in an untreated wheat ([5]; 200 ppm foliar spray) | lesion area compared to the lesion area in an untreated wheat ([5]; 500 ppm foliar spray) | lesion area compared to the lesion area in an untreated wheat [6, 13] | lesion area compared to the lesion area in an untreated wheat [6, 14] | lesion area compared to the lesion area in an untreated wheat [7] | lesion area compared to the lesion area in an untreated soybean [9]

CCC(=NN=C(C)c1ccc2c(c1)CCCC2)OCc1c(C)cccc1-n1nnn(C)c1=O [D-13]
≤ 30%: lesion area compared to the lesion area in an untreated cucumber ([1]; 50 ppm foliar spray) | lesion area compared to the lesion area in an untreated soybean [10] | lesion area compared to the lesion area in an untreated soybean [2] | lesion area compared to the lesion area in an untreated soybean [11] | lesion area compared to the lesion area in an untreated barley [4] | lesion area compared to the lesion area in an untreated wheat ([5]; 200 ppm foliar spray) | lesion area compared to the lesion area in an untreated wheat [6, 13] | lesion area compared to the lesion area in an untreated soybean [12] | lesion area compared to the lesion area in an untreated wheat [7]

CCC(=NN=C(C)c1ccn(C)n1)OCc1c(C)cccc1-n1nnn(C)c1=O [D-19]
≤ 30%: lesion area compared to the lesion area in an untreated cucumber ([1]; 200 ppm foliar spray) | lesion area compared to the lesion area in an untreated soybean [10] | lesion area compared to the lesion area in an untreated soybean [2] | lesion area compared to the lesion area in an untreated soybean [11] | lesion area compared to the lesion area in an untreated barley ([3]; 500 ppm foliar spray) | lesion area compared to the lesion area in an untreated barley [4] | lesion area compared to the lesion area in an untreated wheat ([5]; 200 ppm foliar spray) | lesion area compared to the lesion area in an untreated wheat ([5]; 500 ppm foliar spray) | lesion area compared to the lesion area in an untreated wheat [6, 13] | lesion area compared to the lesion area in an untreated wheat [6, 14] | lesion area compared to the lesion area in an untreated soybean [12] | lesion area compared to the lesion area in an untreated wheat [7] | lesion area compared to the lesion area in an untreated kidney bean ([8]; 200 ppm foliar spray) | lesion area compared to the lesion area in an untreated kidney bean ([8]; 500 ppm foliar spray)

CCC(=NN=C1CCc2cccc(OC)c21)OCc1c(C)cccc1-n1nnn(C)c1=O [E-9]
≤ 30%: lesion area compared to the lesion area in an untreated cucumber ([1]; 50 ppm foliar spray) | lesion area compared to the lesion area in an untreated cucumber ([1]; 200 ppm foliar spray) | lesion area compared to the lesion area in an untreated soybean [10] | lesion area compared to the lesion area in an untreated soybean [2] | lesion area compared to the lesion area in an untreated soybean [11] | lesion area compared to the lesion area in an untreated barley [4] | lesion area compared to the lesion area in an untreated wheat ([5]; 200 ppm foliar spray) | lesion area compared to the lesion area in an untreated wheat [6, 13] | lesion area compared to the lesion area in an untreated soybean [12] | lesion area compared to the lesion area in an untreated wheat [7]

CCC(=NN=C1CCOc2ccccc21)OCc1c(OC)cccc1-n1nnn(C)c1=O [E-12]
≤ 30%: lesion area compared to the lesion area in an untreated cucumber ([1]; 50 ppm foliar spray) | lesion area compared to the lesion area in an untreated cucumber ([1]; 200 ppm foliar spray) | lesion area compared to the lesion area in an untreated soybean [10] | lesion area compared to the lesion area in an untreated soybean [2] | lesion area compared to the lesion area in an untreated soybean [11] | lesion area compared to the lesion area in an untreated barley ([3]; 500 ppm foliar spray) | lesion area compared to the lesion area in an untreated barley [4] | lesion area compared to the lesion area in an untreated wheat ([5]; 200 ppm foliar spray) | lesion area compared to the lesion area in an untreated wheat ([5]; 500 ppm foliar spray) | lesion area compared to the lesion area in an untreated wheat [6, 13] | lesion area compared to the lesion area in an untreated wheat [6, 14] | lesion area compared to the lesion area in an untreated soybean [12] | lesion area compared to the lesion area in an untreated wheat [7] | lesion area compared to the lesion area in an untreated kidney bean ([8]; 200 ppm foliar spray) | lesion area compared to the lesion area in an untreated kidney bean ([8]; 500 ppm foliar spray)

CCC(=NN=C1CCOc2cc(F)cc(F)c21)OCc1c(C)cccc1-n1nnn(C)c1=O [E-24]
≤ 30%: lesion area compared to the lesion area in an untreated cucumber ([1]; 50 ppm foliar spray) | lesion area compared to the lesion area in an untreated cucumber ([1]; 200 ppm foliar spray) | lesion area compared to the lesion area in an untreated soybean [10] | lesion area compared to the lesion area in an untreated soybean [2] | lesion area compared to the lesion area in an untreated soybean [11] | lesion area compared to the lesion area in an untreated barley ([3]; 500 ppm foliar spray) | lesion area compared to the lesion area in an untreated barley [4] | lesion area compared to the lesion area in an untreated wheat ([5]; 200 ppm foliar spray) | lesion area compared to the lesion area in an untreated wheat ([5]; 500 ppm foliar spray) | lesion area compared to the lesion area in an untreated wheat [6, 13] | lesion area compared to the lesion area in an untreated wheat [6, 14] | lesion area compared to the lesion area in an untreated soybean [12] | lesion area compared to the lesion area in an untreated wheat [7] | lesion area compared to the lesion area in an untreated kidney bean ([8]; 200 ppm foliar spray) | lesion area compared to the lesion area in an untreated kidney bean ([8]; 500 ppm foliar spray)

CCC(=NN=C1CCOc2ccc(C)cc21)OCc1c(C)cccc1-n1nnn(C)c1=O [E-26]
≤ 30%: lesion area compared to the lesion area in an untreated cucumber ([1]; 50 ppm foliar spray) | lesion area compared to the lesion area in an untreated cucumber ([1]; 200 ppm foliar spray) | lesion area compared to the lesion area in an untreated soybean [10] | lesion area compared to the lesion area in an untreated soybean [2] | lesion area compared to the lesion area in an untreated soybean [11] | lesion area compared to the lesion area in an untreated barley ([3]; 500 ppm foliar spray) | lesion area compared to the lesion area in an untreated barley [4] | lesion area compared to the lesion area in an untreated wheat ([5]; 200 ppm foliar spray) | lesion area compared to the lesion area in an untreated wheat ([5]; 500 ppm foliar spray) | lesion area compared to the lesion area in an untreated wheat [6, 13] | lesion area compared to the lesion area in an untreated wheat [6, 14] | lesion area compared to the lesion area in an untreated soybean [12] | lesion area compared to the lesion area in an untreated wheat [7] | lesion area compared to the lesion area in an untreated kidney bean ([8]; 200 ppm foliar spray) | lesion area compared to the lesion area in an untreated kidney bean ([8]; 500 ppm foliar spray)
